According to the supplement of paper PMC10849652:
The list shows a part of the results.

Sequences of proteins named here, by UniProt entry; tags and fusion partners are left off. A change or cut given only in a name is not applied to a line headed by its entry.
UniProt Q8IZE3: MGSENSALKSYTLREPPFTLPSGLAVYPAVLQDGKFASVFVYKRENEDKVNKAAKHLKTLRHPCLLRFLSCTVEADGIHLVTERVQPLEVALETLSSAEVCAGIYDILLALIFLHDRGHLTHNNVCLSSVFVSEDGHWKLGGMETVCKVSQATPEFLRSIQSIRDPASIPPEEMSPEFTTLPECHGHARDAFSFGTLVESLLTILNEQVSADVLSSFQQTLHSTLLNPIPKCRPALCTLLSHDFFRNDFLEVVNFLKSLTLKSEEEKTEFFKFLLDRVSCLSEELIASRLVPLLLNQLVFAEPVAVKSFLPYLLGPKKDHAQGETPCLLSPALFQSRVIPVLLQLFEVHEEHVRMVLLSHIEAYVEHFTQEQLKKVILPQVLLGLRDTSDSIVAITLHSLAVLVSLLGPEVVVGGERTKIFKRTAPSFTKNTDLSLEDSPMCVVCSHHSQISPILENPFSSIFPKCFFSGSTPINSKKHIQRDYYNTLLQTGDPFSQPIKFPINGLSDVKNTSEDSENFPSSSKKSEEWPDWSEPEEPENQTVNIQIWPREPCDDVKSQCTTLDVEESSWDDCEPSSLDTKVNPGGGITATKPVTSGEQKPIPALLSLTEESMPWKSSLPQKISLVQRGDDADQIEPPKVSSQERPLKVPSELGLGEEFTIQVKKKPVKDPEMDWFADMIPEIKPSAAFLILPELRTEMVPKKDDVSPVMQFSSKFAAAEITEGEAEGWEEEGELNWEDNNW
UniProt O95969: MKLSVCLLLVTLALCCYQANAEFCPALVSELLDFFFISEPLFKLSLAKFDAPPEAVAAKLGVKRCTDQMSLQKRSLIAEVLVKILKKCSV
UniProt Q96BY9: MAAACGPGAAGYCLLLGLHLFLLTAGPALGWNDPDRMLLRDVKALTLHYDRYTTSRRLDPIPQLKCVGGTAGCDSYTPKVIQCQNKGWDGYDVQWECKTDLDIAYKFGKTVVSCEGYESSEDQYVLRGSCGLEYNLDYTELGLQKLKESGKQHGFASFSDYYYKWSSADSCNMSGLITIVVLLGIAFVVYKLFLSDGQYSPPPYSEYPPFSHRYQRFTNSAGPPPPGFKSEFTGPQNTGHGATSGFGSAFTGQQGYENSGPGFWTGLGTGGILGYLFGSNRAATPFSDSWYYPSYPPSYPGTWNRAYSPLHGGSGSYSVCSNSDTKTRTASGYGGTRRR
UniProt Q9NRG7: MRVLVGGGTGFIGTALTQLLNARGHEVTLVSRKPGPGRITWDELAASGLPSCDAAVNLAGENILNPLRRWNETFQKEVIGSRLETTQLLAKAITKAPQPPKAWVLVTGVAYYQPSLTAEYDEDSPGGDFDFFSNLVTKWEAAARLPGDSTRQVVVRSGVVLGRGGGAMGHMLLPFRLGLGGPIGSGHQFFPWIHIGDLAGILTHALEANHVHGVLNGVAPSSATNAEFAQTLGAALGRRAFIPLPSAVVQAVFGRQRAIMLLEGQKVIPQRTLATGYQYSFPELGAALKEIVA
UniProt Q9H446: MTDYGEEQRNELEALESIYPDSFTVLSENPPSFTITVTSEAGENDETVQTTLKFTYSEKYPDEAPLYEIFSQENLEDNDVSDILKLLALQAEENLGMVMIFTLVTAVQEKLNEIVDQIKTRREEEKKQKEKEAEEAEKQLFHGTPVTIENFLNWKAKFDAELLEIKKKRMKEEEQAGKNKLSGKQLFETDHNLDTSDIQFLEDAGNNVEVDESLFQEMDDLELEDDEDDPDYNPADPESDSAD
UniProt O15126: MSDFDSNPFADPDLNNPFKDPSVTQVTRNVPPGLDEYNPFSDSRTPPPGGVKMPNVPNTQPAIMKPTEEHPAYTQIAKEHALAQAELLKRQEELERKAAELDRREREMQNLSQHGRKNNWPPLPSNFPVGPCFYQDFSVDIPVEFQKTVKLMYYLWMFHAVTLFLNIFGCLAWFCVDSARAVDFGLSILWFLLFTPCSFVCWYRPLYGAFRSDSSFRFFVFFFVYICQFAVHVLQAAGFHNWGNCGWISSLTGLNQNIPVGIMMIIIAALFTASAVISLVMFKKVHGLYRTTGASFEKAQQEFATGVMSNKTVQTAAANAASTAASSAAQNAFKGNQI
UniProt Q9BY50: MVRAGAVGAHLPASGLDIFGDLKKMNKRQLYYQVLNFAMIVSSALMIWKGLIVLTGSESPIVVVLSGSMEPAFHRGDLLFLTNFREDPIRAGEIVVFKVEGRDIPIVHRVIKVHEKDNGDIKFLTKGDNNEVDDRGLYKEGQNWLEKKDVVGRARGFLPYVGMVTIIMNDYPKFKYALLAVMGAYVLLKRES
UniProt P31949: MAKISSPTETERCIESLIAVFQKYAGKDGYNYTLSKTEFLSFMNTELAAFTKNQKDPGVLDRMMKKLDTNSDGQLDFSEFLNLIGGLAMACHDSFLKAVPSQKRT
UniProt Q9Y265, whole entry, looked up: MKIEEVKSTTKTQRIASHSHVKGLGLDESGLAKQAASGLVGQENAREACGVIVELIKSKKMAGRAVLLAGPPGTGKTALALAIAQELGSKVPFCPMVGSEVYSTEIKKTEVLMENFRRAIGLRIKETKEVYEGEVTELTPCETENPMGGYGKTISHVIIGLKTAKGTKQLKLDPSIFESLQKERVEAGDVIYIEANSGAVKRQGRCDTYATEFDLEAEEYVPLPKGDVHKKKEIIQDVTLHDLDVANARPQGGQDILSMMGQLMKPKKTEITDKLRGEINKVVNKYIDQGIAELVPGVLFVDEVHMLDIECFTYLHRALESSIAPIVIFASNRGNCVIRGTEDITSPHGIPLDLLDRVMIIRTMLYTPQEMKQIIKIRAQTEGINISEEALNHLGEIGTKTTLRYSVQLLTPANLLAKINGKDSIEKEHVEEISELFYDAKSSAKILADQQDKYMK
UniProt Q96T23: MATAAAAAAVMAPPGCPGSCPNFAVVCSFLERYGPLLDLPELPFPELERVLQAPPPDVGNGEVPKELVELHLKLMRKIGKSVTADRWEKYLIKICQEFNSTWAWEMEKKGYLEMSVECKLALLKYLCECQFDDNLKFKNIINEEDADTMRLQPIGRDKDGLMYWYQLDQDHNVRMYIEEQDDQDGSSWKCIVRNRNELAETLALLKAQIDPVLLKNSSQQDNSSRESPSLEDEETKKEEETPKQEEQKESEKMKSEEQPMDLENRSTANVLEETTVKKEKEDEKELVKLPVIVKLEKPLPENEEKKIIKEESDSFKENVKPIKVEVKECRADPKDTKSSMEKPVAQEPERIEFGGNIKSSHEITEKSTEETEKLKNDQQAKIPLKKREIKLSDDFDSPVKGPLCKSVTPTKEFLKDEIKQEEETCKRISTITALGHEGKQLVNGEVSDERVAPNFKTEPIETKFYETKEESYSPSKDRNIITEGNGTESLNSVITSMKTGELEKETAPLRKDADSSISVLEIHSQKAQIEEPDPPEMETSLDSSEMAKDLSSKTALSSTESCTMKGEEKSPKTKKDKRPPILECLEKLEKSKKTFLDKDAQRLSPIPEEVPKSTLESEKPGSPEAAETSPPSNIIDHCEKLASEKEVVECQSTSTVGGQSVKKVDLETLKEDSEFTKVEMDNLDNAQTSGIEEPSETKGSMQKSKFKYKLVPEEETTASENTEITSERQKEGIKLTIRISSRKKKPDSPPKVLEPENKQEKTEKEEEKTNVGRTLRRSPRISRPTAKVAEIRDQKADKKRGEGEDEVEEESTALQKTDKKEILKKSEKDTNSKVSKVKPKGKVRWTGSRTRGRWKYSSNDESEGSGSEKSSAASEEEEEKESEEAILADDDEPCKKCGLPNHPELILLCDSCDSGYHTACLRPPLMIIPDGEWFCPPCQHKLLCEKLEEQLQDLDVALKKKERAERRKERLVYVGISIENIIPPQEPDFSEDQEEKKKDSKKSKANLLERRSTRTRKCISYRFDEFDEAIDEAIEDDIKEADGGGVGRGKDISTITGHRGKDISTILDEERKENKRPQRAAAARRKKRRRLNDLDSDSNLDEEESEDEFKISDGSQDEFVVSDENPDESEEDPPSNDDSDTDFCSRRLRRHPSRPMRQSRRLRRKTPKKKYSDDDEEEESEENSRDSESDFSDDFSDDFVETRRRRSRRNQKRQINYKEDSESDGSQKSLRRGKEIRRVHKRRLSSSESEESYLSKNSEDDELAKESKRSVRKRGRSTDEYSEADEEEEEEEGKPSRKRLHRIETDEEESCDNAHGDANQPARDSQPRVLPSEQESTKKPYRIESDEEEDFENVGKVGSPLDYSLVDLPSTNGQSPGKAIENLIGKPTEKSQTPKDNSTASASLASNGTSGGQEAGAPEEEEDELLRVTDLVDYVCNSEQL
UniProt Q96BU1: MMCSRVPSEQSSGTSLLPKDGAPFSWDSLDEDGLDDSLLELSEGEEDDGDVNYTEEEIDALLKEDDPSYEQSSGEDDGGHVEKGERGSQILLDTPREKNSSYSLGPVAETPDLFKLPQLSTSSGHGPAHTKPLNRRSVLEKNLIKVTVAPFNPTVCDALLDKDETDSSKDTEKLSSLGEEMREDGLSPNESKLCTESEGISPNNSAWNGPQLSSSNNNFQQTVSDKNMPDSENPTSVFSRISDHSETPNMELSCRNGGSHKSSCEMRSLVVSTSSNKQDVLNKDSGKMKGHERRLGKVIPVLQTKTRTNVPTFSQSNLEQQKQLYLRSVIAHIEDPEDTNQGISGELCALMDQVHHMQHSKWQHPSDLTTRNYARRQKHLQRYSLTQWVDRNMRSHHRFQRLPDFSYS

Assays:
Assay in all cases: log2 fold change, soluble protein after heating vs DMSO (PISA); higher = thermal stabilisation; K562 cells, 10 uM, 30 min; active = over 0.2 and 3.5 SD of the protein, either way, in both replicates (recomputed)
[1] = compound: C1=CC=C(C=C1)[C@H](COC2=CC3=C(C=C2)NC(=O)N3)NC(=O)C4=CC=CN(C4=O)CC5=CC(=C(C=C5)F)F
Summary of the method: (§1)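 K562 cells at 2×10^6 cells/mL were exposed to 10 μM compound for 30 min, then aliquots were heated for 3 min across 48°C-58°C, pooled, and extracted in PBS containing 0.5% NP-40 at 4°C. The supernatant after 21,000xg for 90 min was taken as soluble protein and measured by TMTpro 16plex LC-MS/MS with channel sums equalised. Thermal stability is reported relative to control samples, with values from duplicates. Fold changes are given on a log2 scale.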

[2] = compound: CC1=C(SC2=C1C(=N[C@H](C3=NN=C(N32)C)CC(=O)N)C4=CC=C(C=C4)Cl)C
Summary of the method: as §1

[3] = compound: CC1=C2C(=CC=C1)N=C(N(C2=O)C3=CC=CC=C3C)CN4C=NC5=C(N=CN=C54)N
Summary of the method: as §1

[4] = compound: Cc1sc2c(c1C)C(c1ccc(Cl)cc1)=N[C@@H](CC(=O)OC(C)(C)C)c1nnc(C)n1-2
Summary of the method: as §1

[5] = compound: c1ccc([C@@H]2C[C@H]2NC2CCNCC2)cc1
Summary of the method: as §1

Measured: log2 fold change

SCYL3 isoform 2 (UniProt Q8IZE3)
inactive: [1] -0.014 | [2] -0.006 | [3] 0.055 | [4] 0.041 | [5] -0.113

SCGB1D2 (UniProt O95969)
inactive: [1] -0.362 | [2] -0.039 | [3] -0.115 | [4] -0.414 | [5] -0.073

SARAF (UniProt Q96BY9)
inactive: [1] 0.039 | [2] -0.136 | [3] 0.173 | [4] 0.174 | [5] 0.144

Reprinted from the listing (2 entries):
SCYL3 isoform 2 (UniProt Q8IZE3)
inactive: [1] -0.014 | [2] -0.006 | [3] 0.055 | [4] 0.041 | [5] -0.113

SCGB1D2 (UniProt O95969)
inactive: [1] -0.362 | [2] -0.039 | [3] -0.115 | [4] -0.414 | [5] -0.073

Continuation.

SDR39U1 (UniProt Q9NRG7)
inactive: [1] 0.9 | [2] 0.005 | [3] 0.236 | [4] -0.348 | [5] -0.306

RWDD1 (UniProt Q9H446)
inactive: [1] -0.037 | [2] 0.043 | [3] 0.032 | [4] -0.045 | [5] 0.018

SCAMP1 (UniProt O15126)
inactive: [1] 0.022 | [2] 0.05 | [3] 0.024 | [4] -0.027 | [5] 0.085

SEC11C (UniProt Q9BY50)
inactive: [1] -0.047 | [2] 0.019 | [3] 0.042 | [4] -0.019 | [5] -0.026

S100A11 (UniProt P31949)
inactive: [1] 0.03 | [2] 0.118 | [3] 0.066 | [4] -0.136 | [5] -0.017

RUVBL1 (UniProt Q9Y265)
inactive: [1] 0.019 | [2] 0.026 | [3] -0.008 | [4] 0.006 | [5] 0.021

RSF1 (UniProt Q96T23)
inactive: [1] -0.102 | [2] 0.091 | [3] 0.096 | [4] -0.061 | [5] -0.018

S100PBP (UniProt Q96BU1)
inactive: [1] -0.062 | [2] -0.085 | [3] 0.093 | [4] -0.022 | [5] -0.094
